Data from the ROBIN nucleic acid binder screens, doi:10.1002/anie.202211358.

Oligonucleotides screened, 5′ to 3′:
TPP: TPP riboswitch RNA three-way junction, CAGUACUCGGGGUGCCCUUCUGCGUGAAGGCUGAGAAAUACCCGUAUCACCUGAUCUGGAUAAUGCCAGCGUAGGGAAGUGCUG. About 160 hits among about 24,000 compounds.
SAM-II: SAM-II riboswitch RNA pseudoknot, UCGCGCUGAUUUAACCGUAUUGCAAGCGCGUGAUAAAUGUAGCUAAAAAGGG. About 200 hits among about 21,000 compounds.
PreQ1: PreQ1 riboswitch RNA pseudoknot, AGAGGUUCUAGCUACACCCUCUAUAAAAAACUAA. From B. subtilis. About 170 hits among about 24,000 compounds.

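The test is a small-molecule microarray: each compound is printed twice on a reactive slide, and binding shows as fluorescence of the labelled oligonucleotide after washing. For the PreQ1, TPP and SAM-II riboswitches the laboratory earlier reported (doi:10.1038/s41467-019-09493-3) 1 µM RNA, 2 h, and a rule that included a mean Z-score above 3 (spot signal-to-noise against the whole library), a score well above that on a control array, and duplicate spots agreeing (coefficient of variation under 100). The data file gives only the calls; its cut-offs may differ, and compounds hitting several targets are kept. The calls come from the array alone, and fixing a compound to the slide can hide its binding.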 Key: Y = hit, N = tested without a hit. This is an unselected part of the compounds tested. A dash means that no call is listed here.

SMILES,TPP,SAM-II,PreQ1
O=C(NCCCOc1cccnc1)[C@H]1CC[C@@H](O)CC1,N,N,N
CN(C)CCCNc1c(N)c(=O)oc2ccccc12,N,N,N
N#CC1=C(N)Oc2c(ccc3ccccc23)C1c1cccnc1 (stereo not drawn),N,N,N
Cc1ccccc1OCC(O)C(=O)N1CCC2(CC1)CN(C)C(=O)O2 (stereo not drawn),N,N,N
COC(=O)c1[nH]c2ccc(Cl)cc2c1N,N,N,N
CN(Cc1ccc(Oc2ccccc2)cc1)Cc1cc2n(n1)CCNC2,N,N,N
CC(=O)Nc1cccc(-c2ccc(NC(=O)CN)c(F)c2)c1,N,N,N
c1ccc(-c2cc(NC3CCCCC3)n3cnnc3n2)cc1,N,-,N
C=CCNC(=O)c1nn(-c2ccc(CC)cc2)nc1CO,N,-,N
O=C(CC1COCCN1Cc1ccoc1)NCCNc1cccnc1 (stereo not drawn),N,N,N
COCc1cc(CN(C)Cc2cc3n(n2)CCCNC3)n[nH]1,N,N,N
CCCCNc1oc(-c2ccccc2)nc1S(=O)(=O)c1ccccc1,N,-,N
O=C(c1ccccc1)c1ccc2nc(NCCCN3CCOCC3)c3nncn3c2c1,N,-,N
CCOC(=O)N1CCC(NCCC(=O)N2CCCC(C)C2)CC1 (stereo not drawn),N,N,N
Fc1ccc(-c2noc3ncnc(NCCC4=CCCCC4)c23)cc1,N,-,N
Cc1nc(N)cc(N2CCC(c3nc(-c4ccccc4)no3)CC2)n1,N,N,N
Cc1cc(C)n(-c2cc(NCCO)ncn2)n1,N,N,N
COc1ccc(OCC2CCCN(c3nc(CO)cs3)C2)cc1 (stereo not drawn),N,N,N
COC(=O)c1ccc(NS(=O)(=O)c2cccc(N)c2)cc1,N,N,N
CC(=O)C1=C(O)C(=O)N(CCO)C1c1ccc(C(C)C)cc1 (stereo not drawn),N,N,N
CC1=Nc2ccccc2/C1=C\c1c(C)[nH]c2ccccc12,N,N,N
OC(CN1CCCC1)Cn1c2ccccc2c2ccccc21 (stereo not drawn),N,N,N
CCc1cc(N2CCC(NCC3COc4ccccc4O3)CC2)nc(C)n1 (stereo not drawn),N,N,N
CC(C)c1cc(-c2ccc3c(c2)OCCO3)c(C#N)c(N)n1,N,N,N
OCCCc1nc2ccccc2n1CCc1ccccc1,N,N,N
CC(C)N(CCC(N)=O)C(=O)c1ccccc1NCC(=O)O,N,N,N
COC(=O)c1cc(Nc2ncnc3c2nc2n3CCCCC2)cc(C(=O)OC)c1,N,N,N
Cc1cccc(OCC(O)CN2CCN(C(=O)c3ccc(Br)cc3)CC2)c1 (stereo not drawn),N,N,N
Cc1cccc2nc(C(=O)N3CCC4(CC3)c3ccccc3[C@@H](N)[C@@H]4O)cn12,N,N,N

Repeated from the top, 4 entries:

SMILES	TPP	SAM-II	PreQ1
O=C(NCCCOc1cccnc1)[C@H]1CC[C@@H](O)CC1	N	N	N
CN(C)CCCNc1c(N)c(=O)oc2ccccc12	N	N	N
N#CC1=C(N)Oc2c(ccc3ccccc23)C1c1cccnc1 (stereo not drawn)	N	N	N
Cc1ccccc1OCC(O)C(=O)N1CCC2(CC1)CN(C)C(=O)O2 (stereo not drawn)	N	N	N